Measured data: PubChem BioAssay AID1259424 (University of Nebraska Medical Center, 2018)

Test: 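Rank knockdowns across the genome by resemblance to the KSR1 depletion profile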 (primary screen)
System: human HCT116 colon cancer cells
Knock-down reagent: siRNA pool against human genes, 50 nM
Detection: 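Six signature mRNAs by branched-DNA multiplex assay, scaled to two housekeeping genes and non-targeting median, log2; matched to mean KSR1 knockdown profile by Pearson correlation and euclidean distance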
Scale: mean correlation with KSR1 profile: higher = expression change more like KSR1 knockdown; mean distance from KSR1 profile: higher = expression change less like KSR1 knockdown
This is one part, drawn at random, of about 14,000 reagents tested. 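Higher correlation or smaller distance means closer resemblance to KSR1 loss; control wells, including KSR1 knockdowns, recur on many plates.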 Not all columns of the deposit are shown. The record does not give: the time to read-out.

THAP11 [SID364001710] gave mean correlation with KSR1 profile -0.835; mean distance from KSR1 profile 1.73. With knock-down of IL23R [SID364004627], the record shows mean correlation with KSR1 profile -0.534; mean distance from KSR1 profile 3.13. Knock-down of NICN1 [SID364003902] resulted in: mean correlation with KSR1 profile 0.614; mean distance from KSR1 profile 1.49. PITHD1 [SID364001630] scored mean correlation with KSR1 profile -0.317; mean distance from KSR1 profile 4.25. Against RAB9A [SID363995248], the entry reads mean correlation with KSR1 profile 0.348; mean distance from KSR1 profile 2.1. After knock-down of MMS19 [SID364002417] the results were mean correlation with KSR1 profile -0.423; mean distance from KSR1 profile 2.15.

Against BCL7B [SID363992928] the deposit lists mean correlation with KSR1 profile 0.385; mean distance from KSR1 profile 2.72. For ASAP3 [SID364000459], the entry reads mean correlation with KSR1 profile -0.19; mean distance from KSR1 profile 1.99. For TULP4 [SID364001590], the values are mean correlation with KSR1 profile 0.085; mean distance from KSR1 profile 1.89. Silencing of STAG3L1 [SID364001312] gave: mean correlation with KSR1 profile 0.307; mean distance from KSR1 profile 1.19. For MTCH2 [SID363998769] the deposit lists mean correlation with KSR1 profile -0.183; mean distance from KSR1 profile 3.61. Knock-down of NISCH [SID363997884] came out at: mean correlation with KSR1 profile 0.0475; mean distance from KSR1 profile 2.83.

With knock-down of POMC [SID363992223] the results were mean correlation with KSR1 profile 0.525; mean distance from KSR1 profile 2.31. Against HYPK [SID364000086], the entry reads mean correlation with KSR1 profile -0.299; mean distance from KSR1 profile 2.49. Depletion of HSSUCCDH (retired record) [SID364005027] came out at: mean correlation with KSR1 profile -0.0883; mean distance from KSR1 profile 1.94. Against CFHR1 [SID363993319], the entry reads mean correlation with KSR1 profile -0.481; mean distance from KSR1 profile 3.52. Silencing of CENPT [SID364003239] gave: mean correlation with KSR1 profile 0.336; mean distance from KSR1 profile 1.75. Against CIB3 [SID364004453] the deposit lists mean correlation with KSR1 profile 0.041; mean distance from KSR1 profile 2.1.

For NYNRIN [SID364005417], the entry reads mean correlation with KSR1 profile -0.202; mean distance from KSR1 profile 4.73.

Copied from the list:
Entry of TULP4 [SID364001590] under “mean distance from KSR1 profile”: 1.89
NYNRIN [SID364005417], mean distance from KSR1 profile: 4.73
HSSUCCDH (retired record) [SID364005027], mean correlation with KSR1 profile = -0.0883
Value of IL23R [SID364004627] in “mean correlation with KSR1 profile”: -0.534
Result of NICN1 [SID364003902] under “mean distance from KSR1 profile”: 1.49
Value of THAP11 [SID364001710] under “mean correlation with KSR1 profile”: -0.835

The list goes on:
Against TRIM56 [SID364003528] the deposit lists mean correlation with KSR1 profile 0.632; mean distance from KSR1 profile 1.14. KIF20B [SID363999940] scored mean correlation with KSR1 profile -0.428; mean distance from KSR1 profile 1.49. Depletion of CISH [SID363998436] gave: mean correlation with KSR1 profile 0.82; mean distance from KSR1 profile 0.676. With knock-down of ANP32A [SID363997127], the record shows mean correlation with KSR1 profile -0.656; mean distance from KSR1 profile 2.08. After knock-down of PHLDA3 [SID363998282], the screen gave mean correlation with KSR1 profile 0.221; mean distance from KSR1 profile 1.14. Depletion of GNAQ [SID363993279] gave: mean correlation with KSR1 profile 0.673; mean distance from KSR1 profile 2.2.

Depletion of KLRD1 [SID363993461] gave: mean correlation with KSR1 profile 0.249; mean distance from KSR1 profile 1.62. After knock-down of RTP4 [SID364002373] the results were mean correlation with KSR1 profile -0.165; mean distance from KSR1 profile 1.77. ANAPC5 [SID363999971] scored mean correlation with KSR1 profile -0.498; mean distance from KSR1 profile 2.3. After knock-down of GDF3 [SID364001740], the screen gave mean correlation with KSR1 profile 0.569; mean distance from KSR1 profile 1.22. With knock-down of ADGRB2 [SID363992925] the results were mean correlation with KSR1 profile 0.792; mean distance from KSR1 profile 2.45. With knock-down of QTMAN [SID364002953], the record shows mean correlation with KSR1 profile 0.43; mean distance from KSR1 profile 1.82.

For TMEM126A [SID364003867], the values are mean correlation with KSR1 profile 0.828; mean distance from KSR1 profile 1.8. Silencing of FOLH1 [SID363995457] gave: mean correlation with KSR1 profile 0.296; mean distance from KSR1 profile 2.44. With knock-down of PDF [SID364002400] the results were mean correlation with KSR1 profile -0.507; mean distance from KSR1 profile 2.44. For PHF1 [SID363993804], the entry reads mean correlation with KSR1 profile 0.585; mean distance from KSR1 profile 1.37. With knock-down of ANKRD7 [SID364001445] the results were mean correlation with KSR1 profile 0.16; mean distance from KSR1 profile 1.83.
